# Data published in patent US6555062B1, “Reagent container for an automated analyzer” (Bayer Corporation, priority 1991, dated 2003).
# At least one compound was matched to its structure with a doubt left.
# Test system: monoclonal anti-digoxin antibody
# Experiment: Digoxin chemiluminescent immunoassay, specificity (cross-reactivity, effect on dose)
# Type: binding
# Settings: digoxin assay
# Method: A digoxin assay has been developed for the above described automated analyzer. The digoxin assay architecture is a hapten solid phase with a labeled antibody (tracer reagent). In the preferred format of this assay, the tracer reagent is an acridinium ester labeled monoclonal anti-digoxin antibody; and the solid phase is paramagnetic particles to which digoxin-apoferritin has been immobilized. A test sample (150 uL.) and tracer reagent (50 uL.) are dispensed into a cuvette by the analyzer and incubated for 2.5 minutes at 37° C. The solid phase reagent (250 uL.) is then added to the cuvette followed by an additional incubation of 5.0 minutes. After the second incubation, magnetic separation and washes are performed as described above prior to detection of the chemiluminescent signal.
# All data presented was generated based upon a two-point recalibration off an original master curve. The master curve was generated using eight standards with values ranging from zero to 6 ng/mL digoxin.
# The test assay has a sensitivity of less than 0.1 ng/mL (minimum detectable dose defined as the 95% confidence limit at 0 ng/mL.) with a range of 0-5 ng/mL. The correlation of the automated test assay with a manual test assay (Magic^R Digoxin, Ciba Corning Diagnostics, Corp.) provided a slope of 1.00, an intercept of 0.08 and a correlation coefficient of 0.97 (N=130).
structure (smiles),measurement,value
C[C@]12CC[C@H](O)C[C@H]1CC[C@@H]1[C@@H]2C[C@@H](O)[C@]2(C)[C@@H](C3=CC(=O)OC3)CC[C@]12O [Digoxigenin],% Cross-Reactivity,16.7%
